Measured values as given in article PMC4719301.
Results are given in words; binding and its absence hold for the method and conditions named. In cells and extracts the contact can be indirect. These calls come from enrichment with a bait or labelling near it, and not all partners need be listed.

The chains behind the UniProt entries cited, without tags or fusion partners.
UniProt P47941: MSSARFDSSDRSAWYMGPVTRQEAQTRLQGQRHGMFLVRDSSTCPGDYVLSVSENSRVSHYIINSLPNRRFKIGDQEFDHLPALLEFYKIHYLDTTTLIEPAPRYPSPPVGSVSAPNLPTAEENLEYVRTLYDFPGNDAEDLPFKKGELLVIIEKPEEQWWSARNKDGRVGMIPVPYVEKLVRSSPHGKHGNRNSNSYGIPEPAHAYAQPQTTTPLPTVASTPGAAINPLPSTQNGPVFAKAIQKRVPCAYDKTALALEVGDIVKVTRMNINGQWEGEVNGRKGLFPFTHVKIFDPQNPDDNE
UniProt Q69Z38: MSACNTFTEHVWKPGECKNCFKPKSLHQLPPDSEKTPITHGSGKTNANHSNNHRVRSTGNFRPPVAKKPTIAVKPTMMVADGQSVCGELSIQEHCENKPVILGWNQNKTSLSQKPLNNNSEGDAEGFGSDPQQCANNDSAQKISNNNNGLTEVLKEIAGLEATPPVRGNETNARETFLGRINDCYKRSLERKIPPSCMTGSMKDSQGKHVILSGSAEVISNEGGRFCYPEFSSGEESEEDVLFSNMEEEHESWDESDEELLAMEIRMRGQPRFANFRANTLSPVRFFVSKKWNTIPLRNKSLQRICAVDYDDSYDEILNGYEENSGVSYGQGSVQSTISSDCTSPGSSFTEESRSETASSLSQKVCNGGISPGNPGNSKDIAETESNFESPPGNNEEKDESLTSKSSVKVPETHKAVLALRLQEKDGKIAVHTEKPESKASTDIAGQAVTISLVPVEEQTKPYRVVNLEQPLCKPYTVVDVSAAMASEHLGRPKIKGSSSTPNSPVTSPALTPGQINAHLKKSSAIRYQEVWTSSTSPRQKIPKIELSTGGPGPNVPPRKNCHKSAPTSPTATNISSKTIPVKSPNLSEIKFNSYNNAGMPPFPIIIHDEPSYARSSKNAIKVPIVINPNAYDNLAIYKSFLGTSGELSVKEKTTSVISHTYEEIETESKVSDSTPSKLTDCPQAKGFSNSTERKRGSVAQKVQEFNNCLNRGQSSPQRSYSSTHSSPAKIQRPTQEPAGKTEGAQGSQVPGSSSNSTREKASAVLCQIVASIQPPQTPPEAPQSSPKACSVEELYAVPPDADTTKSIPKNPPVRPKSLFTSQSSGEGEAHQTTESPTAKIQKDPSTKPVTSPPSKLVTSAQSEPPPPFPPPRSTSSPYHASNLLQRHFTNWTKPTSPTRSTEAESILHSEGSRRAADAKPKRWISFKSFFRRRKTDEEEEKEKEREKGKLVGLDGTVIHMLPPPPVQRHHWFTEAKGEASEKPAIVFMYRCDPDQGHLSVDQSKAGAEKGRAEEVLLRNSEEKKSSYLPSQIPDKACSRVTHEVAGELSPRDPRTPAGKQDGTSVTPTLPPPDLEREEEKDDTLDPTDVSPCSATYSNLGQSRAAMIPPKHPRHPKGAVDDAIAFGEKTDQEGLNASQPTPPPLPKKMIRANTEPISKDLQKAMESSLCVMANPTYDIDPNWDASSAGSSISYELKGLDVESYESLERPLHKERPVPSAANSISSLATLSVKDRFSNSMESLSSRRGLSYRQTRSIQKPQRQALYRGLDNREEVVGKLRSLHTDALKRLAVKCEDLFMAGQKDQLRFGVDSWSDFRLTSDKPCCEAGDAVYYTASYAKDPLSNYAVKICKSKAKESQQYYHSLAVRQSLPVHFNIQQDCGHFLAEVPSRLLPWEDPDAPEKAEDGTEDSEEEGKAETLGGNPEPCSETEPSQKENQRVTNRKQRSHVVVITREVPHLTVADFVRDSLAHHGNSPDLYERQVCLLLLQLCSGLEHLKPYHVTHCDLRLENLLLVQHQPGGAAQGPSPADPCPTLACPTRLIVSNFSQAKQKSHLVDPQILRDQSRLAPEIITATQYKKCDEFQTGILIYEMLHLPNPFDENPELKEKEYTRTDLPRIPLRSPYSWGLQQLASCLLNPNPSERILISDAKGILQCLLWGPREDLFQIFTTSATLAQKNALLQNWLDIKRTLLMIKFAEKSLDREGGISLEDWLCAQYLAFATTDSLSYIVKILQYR
UniProt Q920M5: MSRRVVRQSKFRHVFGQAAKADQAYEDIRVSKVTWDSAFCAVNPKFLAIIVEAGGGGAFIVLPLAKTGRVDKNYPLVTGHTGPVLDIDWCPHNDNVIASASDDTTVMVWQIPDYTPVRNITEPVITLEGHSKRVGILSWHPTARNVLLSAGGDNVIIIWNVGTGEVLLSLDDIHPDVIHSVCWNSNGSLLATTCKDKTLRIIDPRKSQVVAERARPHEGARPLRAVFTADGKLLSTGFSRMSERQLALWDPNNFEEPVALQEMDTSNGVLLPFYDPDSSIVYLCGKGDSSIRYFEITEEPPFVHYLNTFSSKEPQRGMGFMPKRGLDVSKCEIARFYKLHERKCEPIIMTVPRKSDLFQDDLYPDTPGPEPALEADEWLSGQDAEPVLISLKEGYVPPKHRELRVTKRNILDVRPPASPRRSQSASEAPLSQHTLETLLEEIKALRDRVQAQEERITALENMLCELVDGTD
UniProt E9Q6R7: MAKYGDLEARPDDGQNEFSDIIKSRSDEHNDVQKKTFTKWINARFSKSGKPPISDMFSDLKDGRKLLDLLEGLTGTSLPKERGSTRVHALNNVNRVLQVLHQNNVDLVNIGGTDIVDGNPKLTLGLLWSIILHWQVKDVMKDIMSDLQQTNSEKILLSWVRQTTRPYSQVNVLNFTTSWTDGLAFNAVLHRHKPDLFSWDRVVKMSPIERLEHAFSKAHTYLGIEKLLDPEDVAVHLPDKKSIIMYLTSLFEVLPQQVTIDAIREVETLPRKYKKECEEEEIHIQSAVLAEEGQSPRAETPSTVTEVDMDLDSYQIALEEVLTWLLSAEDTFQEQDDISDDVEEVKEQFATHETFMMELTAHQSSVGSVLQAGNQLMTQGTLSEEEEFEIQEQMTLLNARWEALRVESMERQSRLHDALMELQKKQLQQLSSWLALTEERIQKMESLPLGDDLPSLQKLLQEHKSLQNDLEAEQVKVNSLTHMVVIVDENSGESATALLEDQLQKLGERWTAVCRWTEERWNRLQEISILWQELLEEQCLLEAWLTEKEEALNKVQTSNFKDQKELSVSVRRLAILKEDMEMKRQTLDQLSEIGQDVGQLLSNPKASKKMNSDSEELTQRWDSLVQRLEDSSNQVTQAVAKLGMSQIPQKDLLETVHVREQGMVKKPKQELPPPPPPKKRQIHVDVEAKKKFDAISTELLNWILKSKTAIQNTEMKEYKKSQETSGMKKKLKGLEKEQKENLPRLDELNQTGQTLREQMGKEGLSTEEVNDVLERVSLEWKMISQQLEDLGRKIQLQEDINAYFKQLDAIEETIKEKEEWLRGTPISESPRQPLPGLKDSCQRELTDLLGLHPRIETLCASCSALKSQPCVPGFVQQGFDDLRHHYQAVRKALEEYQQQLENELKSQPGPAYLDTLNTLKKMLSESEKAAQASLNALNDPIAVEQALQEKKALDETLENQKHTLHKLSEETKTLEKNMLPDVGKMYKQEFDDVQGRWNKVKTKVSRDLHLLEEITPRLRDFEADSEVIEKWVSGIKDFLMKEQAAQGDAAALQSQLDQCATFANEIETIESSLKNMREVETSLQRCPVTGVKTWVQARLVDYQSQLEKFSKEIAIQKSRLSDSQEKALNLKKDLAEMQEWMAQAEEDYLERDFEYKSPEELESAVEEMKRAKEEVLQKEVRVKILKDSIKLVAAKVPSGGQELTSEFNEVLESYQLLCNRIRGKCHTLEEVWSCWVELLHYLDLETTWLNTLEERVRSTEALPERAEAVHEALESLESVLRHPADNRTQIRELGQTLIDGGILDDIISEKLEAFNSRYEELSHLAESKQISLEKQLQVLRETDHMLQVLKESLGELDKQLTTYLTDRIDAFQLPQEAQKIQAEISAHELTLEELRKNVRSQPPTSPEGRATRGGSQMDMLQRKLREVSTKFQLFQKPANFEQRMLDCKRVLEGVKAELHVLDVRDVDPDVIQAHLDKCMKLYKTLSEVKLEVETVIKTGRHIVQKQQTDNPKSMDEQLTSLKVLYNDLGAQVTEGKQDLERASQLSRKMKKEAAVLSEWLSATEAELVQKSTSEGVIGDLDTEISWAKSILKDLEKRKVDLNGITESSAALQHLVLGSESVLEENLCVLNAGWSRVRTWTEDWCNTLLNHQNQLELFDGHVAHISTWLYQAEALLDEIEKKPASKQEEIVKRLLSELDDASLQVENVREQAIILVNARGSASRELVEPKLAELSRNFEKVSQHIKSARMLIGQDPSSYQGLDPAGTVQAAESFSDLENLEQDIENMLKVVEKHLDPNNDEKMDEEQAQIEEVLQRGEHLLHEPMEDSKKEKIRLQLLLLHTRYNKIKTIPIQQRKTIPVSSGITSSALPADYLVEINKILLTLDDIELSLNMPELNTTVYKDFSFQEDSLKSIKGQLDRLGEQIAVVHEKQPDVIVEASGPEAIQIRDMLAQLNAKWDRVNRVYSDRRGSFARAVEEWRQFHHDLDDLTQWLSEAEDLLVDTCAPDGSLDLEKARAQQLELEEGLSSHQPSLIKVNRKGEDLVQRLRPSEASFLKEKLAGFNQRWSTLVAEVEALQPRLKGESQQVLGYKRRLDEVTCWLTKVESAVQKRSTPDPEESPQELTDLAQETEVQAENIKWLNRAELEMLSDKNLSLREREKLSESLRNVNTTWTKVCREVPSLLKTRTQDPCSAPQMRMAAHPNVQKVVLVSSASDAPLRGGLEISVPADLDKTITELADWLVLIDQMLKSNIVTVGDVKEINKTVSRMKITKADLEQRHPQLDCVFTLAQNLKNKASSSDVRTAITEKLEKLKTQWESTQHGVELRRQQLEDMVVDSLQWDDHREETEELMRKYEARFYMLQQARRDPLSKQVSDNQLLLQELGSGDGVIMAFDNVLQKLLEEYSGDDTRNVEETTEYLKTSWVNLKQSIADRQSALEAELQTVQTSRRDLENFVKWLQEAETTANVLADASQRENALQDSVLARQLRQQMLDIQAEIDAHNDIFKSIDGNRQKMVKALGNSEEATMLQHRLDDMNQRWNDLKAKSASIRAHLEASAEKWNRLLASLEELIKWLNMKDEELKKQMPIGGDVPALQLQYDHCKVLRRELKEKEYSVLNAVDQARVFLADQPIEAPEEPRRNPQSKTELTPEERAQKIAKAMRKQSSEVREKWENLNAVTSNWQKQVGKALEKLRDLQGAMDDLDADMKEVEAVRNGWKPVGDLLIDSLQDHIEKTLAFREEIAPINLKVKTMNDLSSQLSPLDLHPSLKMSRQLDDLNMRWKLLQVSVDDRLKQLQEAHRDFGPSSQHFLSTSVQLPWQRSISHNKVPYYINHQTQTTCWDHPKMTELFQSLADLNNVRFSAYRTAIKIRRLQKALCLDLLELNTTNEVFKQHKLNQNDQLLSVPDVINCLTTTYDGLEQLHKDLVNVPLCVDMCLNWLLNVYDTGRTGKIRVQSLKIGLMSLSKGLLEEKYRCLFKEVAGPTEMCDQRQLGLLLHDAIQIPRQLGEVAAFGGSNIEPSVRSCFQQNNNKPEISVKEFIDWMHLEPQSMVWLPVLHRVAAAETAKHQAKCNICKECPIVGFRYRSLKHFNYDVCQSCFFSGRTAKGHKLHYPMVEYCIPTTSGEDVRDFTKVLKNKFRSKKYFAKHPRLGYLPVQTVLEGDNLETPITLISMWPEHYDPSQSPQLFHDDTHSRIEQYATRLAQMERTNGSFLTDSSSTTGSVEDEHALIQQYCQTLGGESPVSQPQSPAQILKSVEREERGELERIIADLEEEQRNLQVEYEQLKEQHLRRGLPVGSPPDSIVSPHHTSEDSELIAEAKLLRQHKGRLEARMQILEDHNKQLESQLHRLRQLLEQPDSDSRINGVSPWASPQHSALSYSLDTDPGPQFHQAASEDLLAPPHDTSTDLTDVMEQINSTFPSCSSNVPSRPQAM

Target: TAP-CrkL (mouse) (UniProt P47941)
Assay: affinity purification with mass spectrometry; TAP-CrkL purified from lysates of transfected C2C12 myotubes; SDS-PAGE, silver stain, gel slices digested with trypsin, LC-MS/MS, iBAQ; compared with a sham control

| Substance | binding |
| --- | --- |
| DOCK1 (from UniProt Q8BUR4 1-1865) | binds |
| Sgk269 (from UniProt Q69Z38 1-1735) | binds |
| coronin-6 (from UniProt Q920M5 1-471) | binds |
| utrophin (from UniProt E9Q6R7 1-3430) | binds |
